Values of other authors as cited in patent US4880623A, “Process for the preparation of solid nifedipine formulations of high bioavailability and with sustained effect, and formulations thus obtained” (Eurand Italia S.p.A., priority 1985, dated 1989).

COC(=O)C1=C(C)NC(C)=C(C(=O)OC)C1c1ccccc1[N+](=O)[O-] [Nifedipine]
bioavailability of crystalline nifedipine (administered orally, Sugitomo et al.): low
absorption (oral): scarse
